The results in this text go back to PubChem BioAssay AID292 (DTP/NCI, 2004).

The list is a part of this screen's results and no random one: it gathers tests that were run many times, whatever their T/C, doses with no T/C, and many T/C values between a quarter and a half above the control. Further doses and runs are listed elsewhere. T/C gives the treated animals as a percentage of the vehicle group. Some entries give survivors of the animals treated and no T/C: the source files T/C as zero there, which appears to mark a toxic dose or a test without result, not a measured value. Some doses without a T/C left all or most animals alive at the check, yet need not have been tolerated: survival well below the control is almost never listed, so the zero probably covers shortened survival too. Counts of survivors are from the toxicity check (mostly the fifth day) where no day follows; animals may have died later. Schedules are NCI's codes, read here as Q, the interval in days (D) or hours (H), X, the number of doses. Some entries hold several experiments; the results are listed from low to high. Where survival is the endpoint, the PubChem record calls one and a half times the control and up active, and a quarter to a half above the control has no call in these data; cut-offs in other NCI protocols can differ. Some T/C values carry the count of animals alive at the toxicity check (mostly the fifth day); where none is given, no animal had died by that day.

This assay has as its system B6C3F1 mice, ip Sarcoma M5076, median survival T/C. The assay is described as follows: NCI In Vivo Anticancer Drug Screen. Data for tumor model Sarcoma M5076 (intraperitoneal) in B6C3F1 mice. Conditions: T/C endpoint: median survival time, higher T/C = longer survival. Put shortly: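 Tumour cells were transplanted into mice, compound or vehicle was given, survival of both groups was followed, and the treated figure was expressed over the control figure.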

The mark [1] stands for this setting: dose: 200.0 mg/kg/injection, schedule: Q04DX004 (ip), vehicle: saline with Tween-80.
[2] abbreviates: dose: 400.0 mg/kg/injection, schedule: Q04DX004 (ip), vehicle: saline with Tween-80.
Where [3] appears, read: dose: 50.0 mg/kg/injection, schedule: Q04DX004 (ip), vehicle: saline with Tween-80.
Where [4] appears, read: dose: 100.0 mg/kg/injection, schedule: Q04DX004 (ip), vehicle: saline with Tween-80.
The mark [5] stands for this setting: dose: 800.0 mg/kg/injection, schedule: Q04DX004 (ip), vehicle: saline with Tween-80.
Where [6] appears, read: dose: 800.0 mg/kg/injection, schedule: Q04DX004 (ip), vehicle: Klucel (hydroxypropylcellulose) (HPC).

Take `Cc1ccc2c(c1)n([O-])c1cc(Cl)ccc1[n+]2=O`: the T/C by setting is: under setting [1], 127 % of control; (dose: 240.0 mg/kg/injection, schedule: Q04DX004 (ip), vehicle: saline with Tween-80) 125 % of control; under setting [2], 130 % of control; (dose: 666.67 mg/kg/injection, schedule: Q04DX004 (ip), vehicle: saline with Tween-80) 130 % of control. The survivor count was 7 of 10 on day 14 under setting [2] and 6 of 10 on day 14 (dose: 1111.12 mg/kg/injection, schedule: Q04DX004 (ip), vehicle: saline with Tween-80).

Regarding `CN(C)CCNc1ccc(CO)c2sc3ccc(O)cc3c(=O)c12`, the T/C reads like this: under setting [3], 130 % of control; under setting [4], 136 % of control. In addition, the survivor count was 8 of 10 on day 14 under setting [2] and 1 of 10 on day 14 under setting [5].

Consider `CCN(CC)C(=Nc1ccc(Cl)c(Cl)c1)SC(NC=O)=C(Cl)Cl`, for which the survivor count is given as 10 of 10 on day 14 (dose: 400.0 mg/kg/injection, schedule: Q04DX004 (ip), vehicle: Klucel + Tween-80) and 6 of 10 on day 14 (dose: 800.0 mg/kg/injection, schedule: Q04DX004 (ip), vehicle: Klucel + Tween-80).

Consider `CCOc1c2c(nn(C)c1=O)Oc1ccccc1N2CCCN1CCOCC1`, for which the survivor count (dose: 120.0 mg/kg/injection, schedule: Q04DX004 (ip), vehicle: saline with Tween-80) was 0 of 10 on day 14.

On to `N#Cc1ccc(NN=O)nc1`, for which the T/C runs as follows: (dose: 11.0 mg/kg/injection, schedule: Q04DX004 (ip), vehicle: water) 132 % of control; (dose: 12.5 mg/kg/injection, schedule: Q04DX004 (ip), vehicle: water) 128 % of control; (dose: 18.0 mg/kg/injection, schedule: Q04DX004 (ip), vehicle: water) 128 % of control; (dose: 30.0 mg/kg/injection, schedule: Q04DX004 (ip), vehicle: water) 146 % of control.

`Cn1c(-c2ccc(/C=N\N3CCN(/N=C/c4ccc(-c5c[n+]6ccsc6n5C)cc4)CC3)cc2)c[n+]2ccsc12`: the survivor count was 0 of 10 on day 14 (dose: 12.0 mg/kg/injection, schedule: Q04DX004 (ip), vehicle: saline with Tween-80) and 0 of 10 on day 14 (dose: 24.0 mg/kg/injection, schedule: Q04DX004 (ip), vehicle: saline with Tween-80).

For `CNC(=O)Oc1ccc(S(=O)(=O)c2ccc(OC(=O)NC)cc2)cc1`, under setting [2], the survivor count was 0 of 10 on day 14 and 3 of 10 on day 14.

Take `c1cc2c(c(CC3CO3)c1CC1CO1)OCCOCCOCCOCCO2` (stereo not drawn): the survivor count (dose: 400.0 mg/kg/injection, schedule: Q04DX004 (ip), vehicle: saline + alcohol) is listed as 5 of 10 on day 14.

Consider `COc1cccc(C2NC(=S)NC(=O)C2C#N)c1` (stereo not drawn), for which the survivor count under setting [6] is 0 of 10 on day 14.

As for `N#CC1C(=O)NC(=O)C(C#N)C1c1ccc(Cl)cc1Cl` (stereo not drawn), under setting [6], the survivor count was 0 of 10.

As to `Cc1ccc(C)c(NC(=O)C2C(=O)C(=O)N(c3cc(C)ccc3C)C2=O)c1` (stereo not drawn), under setting [6], the survivor count is on record as 0 of 10 on day 14.

In the case of `Clc1cccc(Cl)c1C(Nc1nncs1)Nc1nncs1`, the T/C is 131 % of control under setting [3]; 125 and 142 % of control under setting [4]; 127, 136, 137 % of control under setting [1]; 136 and 140 % of control [9 of 10 alive on day 14] under setting [2]. For the same compound, the survivor count under setting [5] was 4 of 10 on day 14.

As to `O=C1NCC(Br)C(=O)N1` (stereo not drawn), the survivor count (dose: 800.0 mg/kg/injection, schedule: Q04DX004 (ip), vehicle: saline + Tween-80 + alcohol) is on record as 4 of 10 on day 14.

Turning to `COC(=O)NC1C(C)OC(OC2C/C=C(/C)C3C=CC4C(OC5CC(OC6CC(O)C(OC7CC(O)C(OC)C(C)O7)C(C)O6)C(O)C(C)O5)C(C)CC(C)C4C3(C)/C(O)=C3\C(=O)OC4(CC(C)C(CO)=CC4/C=C\2C)C3=O)CC1(C)[N+](=O)[O-]` (stereo not drawn), for the setting “dose: 400.0 mg/kg/injection, schedule: Q04DX004 (ip), vehicle: Klucel (hydroxypropylcellulose) (HPC)”, the survivor count is reported as 0 of 10 on day 14.

In the case of `O=C1NC2(CCCCC2)C(=O)N1CCN(CCCl)CCCl`, the T/C runs as follows: (dose: 1.5 mg/kg/injection, schedule: Q01DX009 (ip), vehicle: saline with Tween-80) 127 % of control [9 of 10 alive on day 14]; (dose: 3.0 mg/kg/injection, schedule: Q01DX009 (ip), vehicle: saline with Tween-80) 131 and 136 % of control; (dose: 4.3 mg/kg/injection, schedule: Q01DX009 (ip), vehicle: saline with Tween-80) 142 % of control; (dose: 6.0 mg/kg/injection, schedule: Q01DX009 (ip), vehicle: saline with Tween-80) 149 [8 of 9 alive on day 14] and 149 % of control [9 of 10 alive on day 14]. Besides, the survivor count runs as follows: (dose: 12.0 mg/kg/injection, schedule: Q01DX009 (ip), vehicle: saline with Tween-80) 4 of 10 on day 14; (dose: 24.0 mg/kg/injection, schedule: Q01DX009 (ip), vehicle: saline with Tween-80) 0 of 10 on day 14; (dose: 33.33 mg/kg/injection, schedule: Q01DX009 (ip), vehicle: saline with Tween-80) 3 of 10 on day 14.

For the compound `O=NNc1ccccn1`, the T/C (dose: 12.5 mg/kg/injection, schedule: Q04DX004 (ip), vehicle: saline) is 130 % of control. In addition, the survivor count runs as follows: (dose: 50.0 mg/kg/injection, schedule: Q04DX004 (ip), vehicle: saline) 1 of 10 on day 14; (dose: 83.33 mg/kg/injection, schedule: Q04DX004 (ip), vehicle: saline) 0 of 10 on day 14; (dose: 138.89 mg/kg/injection, schedule: Q04DX004 (ip), vehicle: saline) 0 of 10 on day 14.

Regarding `CSc1c(N(C)C)c(=O)c1=S`, the survivor count under setting [1] was 5 of 10 on day 14.
